In the test the target is L1 ORF1p-FLAG (ORF1 from the L1 subfamily RP in pcDNA3.1) (human) (UniProt Q9UN81). As to the kind of experiment: co-IP; 293T cells cotransfected with ORF1p-FLAG or ORF2p-3xFLAG plasmid and SAMHD1 T592A; L1 proteins precipitated with anti-FLAG M2 antibody on magnetic beads; immunoblot with anti-myc. (In general: A western blot detects proteins with antibodies after separation by electrophoresis.)

Protein sequences, listed by entry. Tags and fused reporters are not part of them. Lines headed by an entry give the natural chain unless they say otherwise; changes in a name come on top.
UniProt Q9UN81: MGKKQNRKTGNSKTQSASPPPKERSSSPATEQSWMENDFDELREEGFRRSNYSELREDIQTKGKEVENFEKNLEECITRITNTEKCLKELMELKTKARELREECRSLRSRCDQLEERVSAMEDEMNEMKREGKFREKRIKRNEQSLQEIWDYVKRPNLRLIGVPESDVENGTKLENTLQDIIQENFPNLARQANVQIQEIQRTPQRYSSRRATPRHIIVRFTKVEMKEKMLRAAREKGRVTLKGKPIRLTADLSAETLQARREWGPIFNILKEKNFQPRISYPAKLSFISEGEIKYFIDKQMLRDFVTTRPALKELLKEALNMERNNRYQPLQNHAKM
UniProt Q9Y3Z3: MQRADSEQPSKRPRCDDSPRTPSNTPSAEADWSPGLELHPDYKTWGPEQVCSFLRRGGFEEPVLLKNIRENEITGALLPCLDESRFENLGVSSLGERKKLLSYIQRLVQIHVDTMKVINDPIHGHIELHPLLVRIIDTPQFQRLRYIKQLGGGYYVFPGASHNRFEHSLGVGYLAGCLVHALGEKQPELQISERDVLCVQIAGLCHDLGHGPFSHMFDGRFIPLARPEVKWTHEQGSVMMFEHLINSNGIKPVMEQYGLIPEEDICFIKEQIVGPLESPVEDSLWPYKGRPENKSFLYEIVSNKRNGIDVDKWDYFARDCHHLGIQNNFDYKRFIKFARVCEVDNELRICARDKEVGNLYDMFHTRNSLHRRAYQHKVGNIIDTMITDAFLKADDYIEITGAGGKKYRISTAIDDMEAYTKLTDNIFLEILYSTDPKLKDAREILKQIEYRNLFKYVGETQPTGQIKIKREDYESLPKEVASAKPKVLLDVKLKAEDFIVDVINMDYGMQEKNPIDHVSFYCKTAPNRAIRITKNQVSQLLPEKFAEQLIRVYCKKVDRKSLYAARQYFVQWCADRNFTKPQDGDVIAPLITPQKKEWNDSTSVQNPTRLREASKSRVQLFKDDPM

This passage reports binding results from article PMC5872582.

Results are given in words; binding and its absence hold for the method and conditions named. In cells and extracts the contact can be indirect. Some results given as binding are weak or reduced against the parent protein; the word gives no strength.

Take “human SAMHD1 T592A, myc-tagged (from UniProt Q9Y3Z3 1-626)”: the binding result is reported as “binds weakly”.
